{"source": "PubChem BioAssay AID743121 (NCATS, 2013)", "test": "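Partners whose loss is lethal together with topoisomerase I blockade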 (primary screen)", "cells": "MDA-MB-231 cells, a human breast cancer line", "knock-down reagent": "single siRNA against human genes, 20 nM siRNA (0.8 pmol per well)", "duration": "120 h (drug added 48 h after transfection, read 72 h later)", "treatment": "camptothecin 20 nM (about EC30) for 72 h; vehicle 0.1% DMSO in parallel plates", "measured": "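Cell viability by ATP luminescence (CellTiter-Glo) as % of non-targeting siRNA wells, and the log2 ratio of viability without drug over viability with camptothecin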", "reading the numbers": "log2 vehicle/camptothecin viability: higher = stronger sensitisation to camptothecin", "hit rule": "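Each gene scored by redundant siRNA activity (RSA) over its individual siRNA ratios; a gene is called active at p < 0.001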", "note": "In all, the deposit lists about 26,000 reagents; shown is a part drawn at random. 167 of all reagents (0.63%) were called active. 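Calls are per gene from RSA p-values that are not deposited; an individual active-marked siRNA can sensitise only weakly.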 The numbers tell different reagents against one gene apart. Not all columns of the deposit are shown."}
{"target gene": "TUBA4A", "reagent": 1, "log2 vehicle/camptothecin viability": 0.147, "activity call": "inactive"}
{"target gene": "TUBA4A", "reagent": 2, "log2 vehicle/camptothecin viability": -0.931, "activity call": "inactive"}
{"target gene": "TUBA4A", "reagent": 3, "log2 vehicle/camptothecin viability": -0.45, "activity call": "inactive"}
{"target gene": "TUBA4A", "reagent": 4, "log2 vehicle/camptothecin viability": 0.173, "activity call": "inactive"}
{"target gene": "RAPSN", "reagent": 1, "log2 vehicle/camptothecin viability": -0.00736, "activity call": "inactive"}
{"target gene": "RAPSN", "reagent": 2, "log2 vehicle/camptothecin viability": -0.115, "activity call": "inactive"}
{"target gene": "RAPSN", "reagent": 3, "log2 vehicle/camptothecin viability": -0.307, "activity call": "inactive"}
{"target gene": "RAPSN", "reagent": 4, "log2 vehicle/camptothecin viability": -0.0786, "activity call": "inactive"}
{"target gene": "RRAS", "reagent": 1, "log2 vehicle/camptothecin viability": 0.179, "activity call": "inactive"}
{"target gene": "RRAS", "reagent": 2, "log2 vehicle/camptothecin viability": -0.165, "activity call": "inactive"}
{"target gene": "RRAS", "reagent": 3, "log2 vehicle/camptothecin viability": -0.681, "activity call": "inactive"}
{"target gene": "RRAS", "reagent": 4, "log2 vehicle/camptothecin viability": -0.488, "activity call": "inactive"}
{"target gene": "SLC25A36", "reagent": 1, "log2 vehicle/camptothecin viability": -0.112, "activity call": "inactive"}
{"target gene": "SLC25A36", "reagent": 2, "log2 vehicle/camptothecin viability": 0.283, "activity call": "inactive"}
{"target gene": "SLC25A36", "reagent": 3, "log2 vehicle/camptothecin viability": -0.193, "activity call": "inactive"}
{"target gene": "SLC25A36", "reagent": 4, "log2 vehicle/camptothecin viability": 0.00502, "activity call": "inactive"}
{"target gene": "COPB2", "reagent": 1, "log2 vehicle/camptothecin viability": 1.24, "activity call": "inactive"}
{"target gene": "COPB2", "reagent": 2, "log2 vehicle/camptothecin viability": -0.35, "activity call": "inactive"}
{"target gene": "COPB2", "reagent": 3, "log2 vehicle/camptothecin viability": -0.404, "activity call": "inactive"}
{"target gene": "OR8G5", "reagent": 1, "log2 vehicle/camptothecin viability": -0.143, "activity call": "inactive"}
{"target gene": "OR8G5", "reagent": 2, "log2 vehicle/camptothecin viability": -0.111, "activity call": "inactive"}
{"target gene": "OR8G5", "reagent": 3, "log2 vehicle/camptothecin viability": 0.828, "activity call": "inactive"}
{"target gene": "OR8G5", "reagent": 4, "log2 vehicle/camptothecin viability": 0.299, "activity call": "inactive"}
{"target gene": "UROS", "reagent": 1, "log2 vehicle/camptothecin viability": 0.0356, "activity call": "inactive"}
{"target gene": "UROS", "reagent": 2, "log2 vehicle/camptothecin viability": -0.501, "activity call": "inactive"}
{"target gene": "UROS", "reagent": 3, "log2 vehicle/camptothecin viability": -0.163, "activity call": "inactive"}
{"target gene": "UROS", "reagent": 4, "log2 vehicle/camptothecin viability": 0.247, "activity call": "inactive"}

Laid out differently: entries from further up.
RAPSN #4
- log2 vehicle/camptothecin viability: -0.0786
- activity call: inactive

RRAS #1
- log2 vehicle/camptothecin viability: 0.179
- activity call: inactive

RRAS #2
- log2 vehicle/camptothecin viability: -0.165
- activity call: inactive

RRAS #3
- log2 vehicle/camptothecin viability: -0.681
- activity call: inactive
